# The supplement of paper PMC3334620
# Whole data set: some 33,000 sequences, median “E-score (-0.5 to 0.5)” near -0.015, cut for the highest 2% near 0.3. Some of the results follow.
# Biological target: T1, Abf1 (UniProt P14164)
# T1 sequence: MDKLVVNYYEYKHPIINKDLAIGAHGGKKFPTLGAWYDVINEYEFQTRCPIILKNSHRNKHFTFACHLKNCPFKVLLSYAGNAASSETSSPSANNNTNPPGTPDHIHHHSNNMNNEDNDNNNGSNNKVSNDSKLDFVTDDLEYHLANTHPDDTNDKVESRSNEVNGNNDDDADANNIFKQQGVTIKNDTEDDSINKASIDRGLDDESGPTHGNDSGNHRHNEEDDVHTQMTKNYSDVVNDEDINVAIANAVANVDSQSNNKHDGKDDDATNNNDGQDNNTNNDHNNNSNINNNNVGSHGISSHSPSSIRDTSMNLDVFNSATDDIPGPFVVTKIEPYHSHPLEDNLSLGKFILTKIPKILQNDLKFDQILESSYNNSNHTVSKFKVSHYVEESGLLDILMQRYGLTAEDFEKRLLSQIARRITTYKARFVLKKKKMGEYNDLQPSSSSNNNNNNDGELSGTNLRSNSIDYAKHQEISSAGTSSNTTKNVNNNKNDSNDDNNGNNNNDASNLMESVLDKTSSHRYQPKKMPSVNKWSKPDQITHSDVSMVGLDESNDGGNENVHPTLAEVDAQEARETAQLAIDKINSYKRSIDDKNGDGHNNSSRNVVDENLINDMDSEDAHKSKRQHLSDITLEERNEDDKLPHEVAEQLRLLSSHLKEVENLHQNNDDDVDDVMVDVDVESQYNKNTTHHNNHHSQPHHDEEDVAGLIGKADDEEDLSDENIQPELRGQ
# Assay: PBM E-score (8-mer binding enrichment) (E-score (-0.5 to 0.5)); higher = stronger / more preferred TF binding
# Conditions: protein concentration: 200 nM; construct: GST-full length
# Description: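 Universal 'all 10-mer' protein binding microarrays (Agilent AMADID 015681) probed with GST-tagged S. cerevisiae TFs (full-length or DBD) made by in vitro transcription/translation (PURExpress), about 100-200 nM. Bound TF was detected with fluorescent anti-GST. Each ungapped 8-mer (which stands for itself and its reverse complement) is scored by the PBM enrichment score (E-score), a modified Wilcoxon-Mann-Whitney statistic from -0.5 to +0.5, computed with the Universal PBM Analysis Suite. Scale: above 0.35 generally sequence-specific binding.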
row,Sequence,PBM E-score
1,GCTCTGTA,-0.0948
2,AGTAAAAA,0.0745
3,CCGAATGA,0.192
4,CGGCGCAC,0.0813
5,AGCCTCAC,-0.154
6,ACGGGGGG,-0.0967
7,ACCACCGT,0.153
8,AATGAACC,-0.0853
9,AATATTCC,0.135
10,AAATAATT,0.212
11,GCGCCCCC,-0.324
12,CCGTCGAG,0.218
13,ATTTTGCG,0.0127
14,AAGGGTTA,0.0193
15,ATACTGTC,-0.0337
16,CTCCTGCA,-0.227
17,AGGCGCGC,-0.125
18,AGAAGTCA,0.18
19,ATGTTTAA,0.136
20,AGAGAACG,0.172
21,ACAAAGGG,-0.106
22,CGGCTACG,-0.182

# Part of the list above in another layout.
row | Sequence | PBM E-score
1 | GCTCTGTA | -0.0948
2 | AGTAAAAA | 0.0745
3 | CCGAATGA | 0.192
4 | CGGCGCAC | 0.0813
5 | AGCCTCAC | -0.154
6 | ACGGGGGG | -0.0967

# Remaining list, next part:

row,Sequence,PBM E-score
1,GAGTCTAA,-0.0556
2,CGACAGAA,0.0352
3,CGTGCCAC,0.114
4,GCTTTCAA,0.128
5,GGCACACA,-0.115
6,CGTGTTAA,0.198
7,CATCCGAG,-0.169
8,GGAGCTCA,-0.186
9,ACAGGCTC,-0.0662
10,ATTGCTAG,-0.12
11,AGCGTGGA,0.125
12,GGGGTAAC,-0.117
13,CGGTTCAA,0.0375
14,GCCAGGGA,-0.181
15,ATCACAAA,0.159
16,AACATCGA,0.12
17,CCGTTAAA,0.0775
18,AGTCCTTA,-0.0603
19,CTCAGAAC,0.0271
20,CACAGCCG,-0.0828
21,CTACCAAC,0.229
22,CTTACCGC,-0.258

row,Sequence,PBM E-score
1,AGACGCAG,-0.229
2,GGACCGCA,-0.155
3,ACTCAACA,-0.0269
4,CGTGAGGA,0.0867
5,GACGCTGC,-0.121
6,GCCAATGA,-0.0329
7,AGTTACCC,-0.0787
8,ACTAAAGA,0.0616
9,CAGTTTTA,-0.103
10,ACCCTAGA,-0.0437
11,CTTCAAAG,-0.0884
12,ATCAGGAT,-0.0211
13,CAGTCCAC,-0.061
14,CCAGGTAG,-0.228
15,CGACGTAG,0.134
16,CAATTCGA,0.0173
17,GCTTATCC,-0.103
18,ATGTACAG,-0.0808
19,AGAATTTC,-0.109
20,ATCCGGTA,-0.0976
21,ATCCGGAT,-0.131
22,AGAGATGC,0.089

row,Sequence,PBM E-score
1,ATGTCCAG,0.0563
2,CCAAAGGA,-0.255
3,ACATCAAA,0.0333
4,ATTTGAAA,0.0979
5,ACAACCCT,-0.134
6,ACCGTACG,0.34
7,GGATCGAC,-0.0847
8,GGCAGAGA,0.0118
9,CCAGCTTA,-0.0646
10,AATATAAG,0.196
11,AACCTGAT,0.0781
12,AATACTGT,0.00307
13,CACCGGCG,-0.0421
14,AACTGCAT,0.0766
15,TGACGCAA,-0.0094
16,CAATCCTC,0.0413
17,CGGCCATC,-0.17
18,ACGAATCA,0.258
19,AATATGCT,0.0979
20,AGTGGGGG,-0.323
21,AGAAGTTG,-0.0778
22,ATGGAGCC,-0.27

row,Sequence,PBM E-score
1,TAATGTGA,0.103
2,CTGTGGAC,-0.166
3,CCCCGGGC,-0.231
4,GTAGTTCA,-0.261
5,CAAGGCAC,-0.211
6,AAGCACTG,-0.132
7,GTACCTGA,0.0126
8,TATAAGCA,0.196
9,AGATATTG,0.146
10,AACTCCTA,0.0268
11,CCGTTTGC,-0.0132
12,GAGGACTC,-0.235
13,CATACCAG,-0.218
14,GCTGGTTA,-0.0104
15,AAAGTTAG,-0.0275
16,ATGTCGCC,0.116
17,CACAAAAA,0.0732
18,ATATGAAG,0.0962
19,ATGTGCAA,-0.0475
20,CACTAGCC,0.144
21,ACGATTAT,0.179
22,AGCAGGTG,-0.0258
